± gives the standard deviation of the averaged measurements. The list shows a part of the results, in another mix than the full data.
Compound: Nc1ncnc2c1ncn2[C@@H]1O[C@H](COP(=O)(O)OP(=O)(O)OP(=O)(O)O)[C@@H](O)[C@H]1O [adenosine triphosphate]
Experiment: NP40-soluble protein abundance relative to vehicle (solubility fold change) (ratio); higher = more soluble protein in presence of ATP
Method in brief: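 Values are fold changes against the detergent-processed vehicle, based on vsn-normalised intensities. Jurkat crude lysate was treated at eight concentrations from 0.1 to 10 mM (10 min at room temperature, then 3 min at 37 °C), solubilised with 0.8% NP40 and benzonase, ultracentrifuged and analysed by TMT-labelled LC-MS/MS over three independent experiments.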

Chains of the proteins cited; added tags and fusions are not shown. Lines headed by an entry give the natural chain unless they say otherwise; changes in a name come on top.
UniProt Q0P6D6: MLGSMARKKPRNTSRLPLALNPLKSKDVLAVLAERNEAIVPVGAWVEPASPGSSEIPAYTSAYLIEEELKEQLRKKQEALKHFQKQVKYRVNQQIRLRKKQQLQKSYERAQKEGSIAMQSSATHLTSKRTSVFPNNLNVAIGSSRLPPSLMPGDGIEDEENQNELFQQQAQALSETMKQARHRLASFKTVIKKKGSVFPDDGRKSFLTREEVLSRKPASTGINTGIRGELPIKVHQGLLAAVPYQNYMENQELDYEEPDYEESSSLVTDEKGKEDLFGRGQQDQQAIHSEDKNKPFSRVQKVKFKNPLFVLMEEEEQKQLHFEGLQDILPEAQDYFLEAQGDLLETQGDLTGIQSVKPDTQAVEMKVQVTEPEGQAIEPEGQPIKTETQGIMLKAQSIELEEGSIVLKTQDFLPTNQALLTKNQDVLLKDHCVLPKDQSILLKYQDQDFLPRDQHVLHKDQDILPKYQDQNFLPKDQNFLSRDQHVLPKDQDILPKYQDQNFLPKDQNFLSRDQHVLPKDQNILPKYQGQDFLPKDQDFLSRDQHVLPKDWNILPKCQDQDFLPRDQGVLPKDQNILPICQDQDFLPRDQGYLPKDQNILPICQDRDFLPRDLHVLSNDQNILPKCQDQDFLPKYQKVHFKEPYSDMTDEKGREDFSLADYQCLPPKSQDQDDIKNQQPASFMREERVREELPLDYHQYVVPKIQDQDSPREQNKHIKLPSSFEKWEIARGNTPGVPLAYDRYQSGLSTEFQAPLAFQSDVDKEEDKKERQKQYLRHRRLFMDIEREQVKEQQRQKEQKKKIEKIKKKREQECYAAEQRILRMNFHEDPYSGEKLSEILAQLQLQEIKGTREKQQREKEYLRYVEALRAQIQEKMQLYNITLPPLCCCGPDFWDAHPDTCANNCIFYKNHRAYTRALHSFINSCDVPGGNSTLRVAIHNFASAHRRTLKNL
UniProt Q9Y4A5, whole entry: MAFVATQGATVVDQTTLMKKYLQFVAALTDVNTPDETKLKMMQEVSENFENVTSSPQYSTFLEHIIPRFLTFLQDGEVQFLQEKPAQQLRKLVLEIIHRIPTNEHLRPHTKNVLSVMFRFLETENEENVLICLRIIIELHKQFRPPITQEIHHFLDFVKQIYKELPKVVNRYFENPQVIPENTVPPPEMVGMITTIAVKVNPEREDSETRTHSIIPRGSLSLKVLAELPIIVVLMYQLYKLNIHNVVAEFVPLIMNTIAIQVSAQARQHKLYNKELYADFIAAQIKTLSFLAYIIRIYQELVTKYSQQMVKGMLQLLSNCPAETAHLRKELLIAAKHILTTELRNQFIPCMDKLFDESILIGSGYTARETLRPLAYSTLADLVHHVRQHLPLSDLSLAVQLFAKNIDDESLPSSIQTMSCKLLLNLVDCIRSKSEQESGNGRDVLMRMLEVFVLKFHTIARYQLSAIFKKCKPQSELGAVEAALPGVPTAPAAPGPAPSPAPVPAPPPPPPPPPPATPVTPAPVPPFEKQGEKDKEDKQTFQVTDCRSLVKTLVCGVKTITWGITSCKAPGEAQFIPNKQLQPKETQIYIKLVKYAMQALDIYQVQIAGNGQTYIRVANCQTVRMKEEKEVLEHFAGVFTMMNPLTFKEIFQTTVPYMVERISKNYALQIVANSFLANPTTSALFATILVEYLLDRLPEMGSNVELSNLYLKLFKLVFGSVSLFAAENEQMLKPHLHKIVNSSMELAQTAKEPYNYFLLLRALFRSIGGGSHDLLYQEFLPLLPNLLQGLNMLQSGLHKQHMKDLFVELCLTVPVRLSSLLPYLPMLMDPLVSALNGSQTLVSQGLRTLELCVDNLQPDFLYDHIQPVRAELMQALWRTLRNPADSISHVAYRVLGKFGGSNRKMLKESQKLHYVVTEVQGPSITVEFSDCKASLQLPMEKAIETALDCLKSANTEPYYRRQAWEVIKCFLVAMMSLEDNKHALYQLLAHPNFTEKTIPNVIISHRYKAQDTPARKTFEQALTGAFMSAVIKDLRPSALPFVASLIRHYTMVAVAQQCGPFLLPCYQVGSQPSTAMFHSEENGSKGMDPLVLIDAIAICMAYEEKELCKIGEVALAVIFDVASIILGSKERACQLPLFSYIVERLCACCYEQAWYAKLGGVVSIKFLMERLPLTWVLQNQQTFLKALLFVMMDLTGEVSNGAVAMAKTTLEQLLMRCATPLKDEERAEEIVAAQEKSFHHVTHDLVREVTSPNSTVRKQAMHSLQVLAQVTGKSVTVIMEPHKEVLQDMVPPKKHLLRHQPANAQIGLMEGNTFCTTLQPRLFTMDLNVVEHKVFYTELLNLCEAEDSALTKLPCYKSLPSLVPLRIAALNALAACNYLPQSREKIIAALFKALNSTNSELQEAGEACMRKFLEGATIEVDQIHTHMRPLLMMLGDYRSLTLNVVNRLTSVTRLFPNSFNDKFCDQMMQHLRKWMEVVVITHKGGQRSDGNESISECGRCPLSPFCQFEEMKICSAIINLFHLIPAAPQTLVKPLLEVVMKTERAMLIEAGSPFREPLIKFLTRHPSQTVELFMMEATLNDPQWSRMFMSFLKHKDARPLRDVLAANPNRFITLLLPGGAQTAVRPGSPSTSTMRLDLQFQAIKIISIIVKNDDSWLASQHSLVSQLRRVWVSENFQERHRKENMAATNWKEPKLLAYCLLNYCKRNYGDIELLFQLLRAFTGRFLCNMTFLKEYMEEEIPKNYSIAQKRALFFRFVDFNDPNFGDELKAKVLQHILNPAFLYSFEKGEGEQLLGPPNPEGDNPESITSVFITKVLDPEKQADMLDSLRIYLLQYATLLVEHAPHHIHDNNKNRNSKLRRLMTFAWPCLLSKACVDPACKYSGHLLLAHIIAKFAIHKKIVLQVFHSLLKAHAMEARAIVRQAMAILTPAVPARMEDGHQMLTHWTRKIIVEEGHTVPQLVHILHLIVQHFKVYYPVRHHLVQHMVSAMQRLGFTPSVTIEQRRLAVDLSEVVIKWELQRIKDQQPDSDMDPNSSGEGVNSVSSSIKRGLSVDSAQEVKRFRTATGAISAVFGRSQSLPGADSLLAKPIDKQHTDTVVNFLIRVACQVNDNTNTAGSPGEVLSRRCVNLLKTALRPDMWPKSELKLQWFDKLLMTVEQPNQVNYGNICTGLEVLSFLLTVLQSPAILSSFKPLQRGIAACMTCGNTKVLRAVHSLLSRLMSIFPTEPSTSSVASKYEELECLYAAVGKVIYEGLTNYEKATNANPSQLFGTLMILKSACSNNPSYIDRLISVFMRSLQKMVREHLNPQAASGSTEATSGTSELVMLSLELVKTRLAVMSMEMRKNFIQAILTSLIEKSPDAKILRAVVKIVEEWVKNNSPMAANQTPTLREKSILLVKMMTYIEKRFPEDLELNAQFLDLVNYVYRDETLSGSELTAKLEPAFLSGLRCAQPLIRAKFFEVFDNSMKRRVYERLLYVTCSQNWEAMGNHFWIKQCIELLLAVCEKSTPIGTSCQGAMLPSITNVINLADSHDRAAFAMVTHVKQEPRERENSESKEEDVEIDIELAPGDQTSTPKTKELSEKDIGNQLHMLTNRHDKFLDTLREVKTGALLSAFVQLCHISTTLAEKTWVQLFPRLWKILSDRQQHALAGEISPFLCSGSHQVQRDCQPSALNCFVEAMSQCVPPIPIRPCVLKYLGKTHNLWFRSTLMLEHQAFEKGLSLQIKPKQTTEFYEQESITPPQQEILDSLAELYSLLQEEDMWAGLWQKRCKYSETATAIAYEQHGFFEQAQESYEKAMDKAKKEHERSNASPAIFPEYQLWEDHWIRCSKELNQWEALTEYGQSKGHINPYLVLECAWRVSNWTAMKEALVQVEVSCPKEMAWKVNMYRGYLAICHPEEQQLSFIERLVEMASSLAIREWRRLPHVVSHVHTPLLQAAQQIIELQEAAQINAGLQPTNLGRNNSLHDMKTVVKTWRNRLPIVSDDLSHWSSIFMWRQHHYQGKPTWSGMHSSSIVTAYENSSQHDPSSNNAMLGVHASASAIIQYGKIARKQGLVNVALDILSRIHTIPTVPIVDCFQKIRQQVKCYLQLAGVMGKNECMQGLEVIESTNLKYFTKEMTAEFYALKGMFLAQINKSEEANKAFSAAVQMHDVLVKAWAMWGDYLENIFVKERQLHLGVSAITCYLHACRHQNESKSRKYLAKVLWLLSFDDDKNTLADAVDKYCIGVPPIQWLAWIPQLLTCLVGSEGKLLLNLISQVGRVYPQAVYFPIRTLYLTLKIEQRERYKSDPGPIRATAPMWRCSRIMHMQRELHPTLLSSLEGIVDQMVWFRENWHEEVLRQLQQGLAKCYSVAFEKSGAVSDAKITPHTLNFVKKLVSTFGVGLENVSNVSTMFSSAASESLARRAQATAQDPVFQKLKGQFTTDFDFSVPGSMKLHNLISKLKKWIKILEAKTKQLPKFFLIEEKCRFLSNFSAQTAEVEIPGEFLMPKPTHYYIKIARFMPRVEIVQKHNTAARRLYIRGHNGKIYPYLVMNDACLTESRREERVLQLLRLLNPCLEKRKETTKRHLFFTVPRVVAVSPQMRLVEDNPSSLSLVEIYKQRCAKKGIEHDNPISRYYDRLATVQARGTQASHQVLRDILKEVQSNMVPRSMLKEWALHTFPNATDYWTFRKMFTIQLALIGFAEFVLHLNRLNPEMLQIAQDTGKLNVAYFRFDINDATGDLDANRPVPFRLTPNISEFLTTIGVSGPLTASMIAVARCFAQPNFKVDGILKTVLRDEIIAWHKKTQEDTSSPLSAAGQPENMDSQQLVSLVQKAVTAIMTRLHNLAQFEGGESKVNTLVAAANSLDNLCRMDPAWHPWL
UniProt O15014: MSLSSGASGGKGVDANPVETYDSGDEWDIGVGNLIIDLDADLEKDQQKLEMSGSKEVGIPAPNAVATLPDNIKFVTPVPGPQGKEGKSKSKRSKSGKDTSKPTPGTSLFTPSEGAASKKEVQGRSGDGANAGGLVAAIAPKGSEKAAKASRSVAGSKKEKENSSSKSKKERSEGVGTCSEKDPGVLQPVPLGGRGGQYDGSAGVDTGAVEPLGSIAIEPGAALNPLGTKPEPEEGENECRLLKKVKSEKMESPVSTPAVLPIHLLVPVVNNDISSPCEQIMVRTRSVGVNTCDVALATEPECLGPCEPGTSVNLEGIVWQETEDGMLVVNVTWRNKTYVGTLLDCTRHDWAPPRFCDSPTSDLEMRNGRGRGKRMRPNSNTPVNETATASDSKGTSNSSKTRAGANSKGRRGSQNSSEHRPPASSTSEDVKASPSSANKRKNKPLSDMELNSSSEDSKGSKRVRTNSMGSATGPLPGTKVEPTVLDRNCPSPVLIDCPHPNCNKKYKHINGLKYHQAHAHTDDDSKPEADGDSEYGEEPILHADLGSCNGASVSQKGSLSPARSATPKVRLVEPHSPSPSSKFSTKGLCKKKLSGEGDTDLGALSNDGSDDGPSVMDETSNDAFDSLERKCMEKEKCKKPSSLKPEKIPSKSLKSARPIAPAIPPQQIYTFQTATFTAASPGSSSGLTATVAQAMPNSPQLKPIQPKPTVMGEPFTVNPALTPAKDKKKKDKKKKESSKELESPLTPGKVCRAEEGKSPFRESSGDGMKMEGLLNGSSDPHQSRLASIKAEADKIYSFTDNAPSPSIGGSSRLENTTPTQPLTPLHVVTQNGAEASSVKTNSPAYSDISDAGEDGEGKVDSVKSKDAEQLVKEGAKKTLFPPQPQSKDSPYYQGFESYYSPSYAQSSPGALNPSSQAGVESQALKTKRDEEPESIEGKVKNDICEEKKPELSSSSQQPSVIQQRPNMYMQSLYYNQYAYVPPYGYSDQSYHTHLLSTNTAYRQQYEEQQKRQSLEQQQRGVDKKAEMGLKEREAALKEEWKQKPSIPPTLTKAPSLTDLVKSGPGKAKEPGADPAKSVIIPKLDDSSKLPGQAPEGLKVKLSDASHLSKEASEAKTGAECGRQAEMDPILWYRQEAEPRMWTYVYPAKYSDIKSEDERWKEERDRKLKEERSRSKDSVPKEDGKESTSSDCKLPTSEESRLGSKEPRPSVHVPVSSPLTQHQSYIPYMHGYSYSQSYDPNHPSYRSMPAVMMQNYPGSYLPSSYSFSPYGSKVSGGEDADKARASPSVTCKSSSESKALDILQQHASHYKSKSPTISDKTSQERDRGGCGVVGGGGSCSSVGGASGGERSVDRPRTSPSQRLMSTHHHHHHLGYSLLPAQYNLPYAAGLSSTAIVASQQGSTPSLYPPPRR
UniProt P63027, whole entry, looked up: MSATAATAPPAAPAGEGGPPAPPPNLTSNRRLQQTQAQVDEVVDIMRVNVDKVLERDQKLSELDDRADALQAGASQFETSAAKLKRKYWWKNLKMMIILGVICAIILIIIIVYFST
UniProt O00193: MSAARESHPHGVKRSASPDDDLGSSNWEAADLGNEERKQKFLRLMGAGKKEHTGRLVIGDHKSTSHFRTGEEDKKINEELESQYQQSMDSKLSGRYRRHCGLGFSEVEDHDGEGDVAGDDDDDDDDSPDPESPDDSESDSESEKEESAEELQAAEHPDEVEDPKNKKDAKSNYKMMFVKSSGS

Row | Target | NP40-soluble protein abundance (concentration: 1mM) | NP40-soluble protein abundance (concentration: 2mM) | NP40-soluble protein abundance (concentration: 4mM) | NP40-soluble protein abundance (concentration: 6mM) | NP40-soluble protein abundance (concentration: 8mM) | NP40-soluble protein abundance (concentration: 10mM)
1 | E7ET07 and related entries (UniProt Q9NXR8) | 1.09 ± 0.046 | 1.11 ± 0.092 | 1.11 ± 0.12 | 1.24 ± 0.11 | 1.19 ± 0.11 | 1.19 ± 0.13
2 | E9PKB1 and related entries (UniProt Q0P6D6) | 1.01 ± 0.19 | 1.01 ± 0.22 | 1.09 ± 0.046 | 1.17 ± 0.21 | 1.01 ± 0.05 | 1.05 ± 0.071
3 | E3W994 and related entries (UniProt O75122) | 1.19 ± 0.087 | 1.21 ± 0.084 | 1.24 ± 0.087 | 1.28 ± 0.093 | 1.26 ± 0.086 | 1.3 ± 0.086
4 | F5H1D6 and related entries (UniProt Q07864) | 1.08 ± 0.096 | 1.06 ± 0.088 | 1.09 ± 0.11 | 1.02 ± 0.1 | 1.12 ± 0.025 | 1.07 ± 0.11
5 | F2Z2U4 and related entries (UniProt Q9Y4A5) | 1.07 ± 0.073 | 1.035 ± 0.01 | 1.08 ± 0.035 | 1.03 ± 0.038 | 1.14 ± 0.054 | 1.14 ± 0.054
6 | E9PKQ5 and related entries (UniProt Q9GZT6) | 0.975 ± 0.035 | 0.9302 ± 0.0066 | 0.921 ± 0.023 | 0.972 ± 0.031 | 0.927 ± 0.036 | 0.885 ± 0.025
7 | F5GYX3 and related entries (UniProt O75326) | 0.874 ± 0.061 | 0.822 ± 0.068 | 0.85 ± 0.034 | 0.876 ± 0.064 | 0.838 ± 0.087 | 0.888 ± 0.03
8 | E9PS00 and related entries (UniProt Q9Y5Q0) | 0.96657 ± 0.00075 | 1.11 ± 0.019 | 1.13 ± 0.067 | 1.126 ± 0.0045 | 1.03 ± 0.11 | 1.13 ± 0.046
9 | G5E973 and related entries (UniProt P30203) | 1.01 ± 0.12 | 0.981 ± 0.078 | 1.04 ± 0.075 | 1.05 ± 0.14 | 1.01 ± 0.082 | 0.977 ± 0.061
10 | F5H0F9 and related entries (UniProt Q9UJX4) | 1.13 ± 0.078 | 1.04 ± 0.034 | 1.02 ± 0.045 | 1 ± 0.12 | 1.09 ± 0.081 | 1.03 ± 0.11
11 | F5H136 and related entries (UniProt P17987) | 1.01 ± 0.024 | 0.931 ± 0.042 | 0.846 ± 0.016 | 0.877 ± 0.13 | 0.873 ± 0.061 | 0.852 ± 0.067
12 | E7ERY8 and related entries (UniProt O15014) | 1.03 ± 0.065 | 1.02 ± 0.058 | 1.04 ± 0.07 | 1.08 ± 0.078 | 1.04 ± 0.039 | 1.08 ± 0.049
13 | F5GZ90 and related entries (UniProt Q9NZJ0) | 0.941 ± 0.0064 | 0.937 ± 0.017 | 0.894 ± 0.028 | 0.877 ± 0.037 | 0.863 ± 0.036 | 0.868 ± 0.036
14 | E9PS74 and related entries (UniProt Q8NBI5) | 0.974 ± 0.043 | 0.999 ± 0.046 | 0.959 ± 0.046 | 0.969 ± 0.036 | 0.978 ± 0.076 | 1.01 ± 0.044
15 | F8VU11 and related entries (UniProt Q6NWY9) | 1.05 ± 0.053 | 1.1 ± 0.074 | 1.15 ± 0.15 | 1.16 ± 0.098 | 1.09 ± 0.16 | 1.17 ± 0.2
16 | F8WCA0 and related entries (UniProt P63027+J3QRU4+L7N2F9+F8WCA0) | 0.959 ± 0.14 | 0.91 ± 0.069 | 1.04 ± 0.11 | 0.894 ± 0.066 | 0.857 ± 0.12 | 0.805 ± 0.15
17 | F8VQZ7 and related entries (UniProt P50579) | 0.989 ± 0.028 | 0.997 ± 0.023 | 1.03 ± 0.03 | 1.01 ± 0.016 | 1.02 ± 0.014 | 1.02 ± 0.011
18 | E9PJK5 and related entries (UniProt Q8N612) | 1.1 ± 0.18 | 1.08 ± 0.19 | 0.966 ± 0.19 | 1.32 ± 0.3 | 0.973 ± 0.032 | 1.13 ± 0.14
19 | G3V3X7 and related entries (UniProt Q9Y587) | 1.15 ± 0.12 | 1.08 ± 0.044 | 1.04 ± 0.11 | 1.01 ± 0.12 | 1.06 ± 0.094 | 1.05 ± 0.13
20 | E9PN30 and related entries (UniProt Q9BQE4) | 1.02 ± 0.087 | 1 ± 0.12 | 1.04 ± 0.18 | 0.895 ± 0.13 | 1.06 ± 0.089 | 0.892 ± 0.067
21 | E9PPG8 and related entries (UniProt Q53FT3) | 1.02 ± 0.15 | 1.02 ± 0.16 | 0.999 ± 0.14 | 0.979 ± 0.15 | 1.01 ± 0.11 | 0.975 ± 0.064
22 | E7ERD7 and related entries (UniProt Q9UKU0) | 1.02 ± 0.041 | 1.04 ± 0.014 | 1.08 ± 0.05 | 1.01 ± 0.095 | 1.08 ± 0.1 | 1.02 ± 0.023
23 | E7EQN5 and related entries (UniProt P98171) | 1 ± 0.04 | 0.9972 ± 0.0072 | 0.981 ± 0.01 | 0.99 ± 0.015 | 0.9789 ± 0.0044 | 0.987 ± 0.028
24 | E9PM92 and related entries (UniProt O00193+E9PM92) | 0.97 ± 0.28 | 0.998 ± 0.054 | 0.971 ± 0.053 | 1.04 ± 0.2 | 0.984 ± 0.015 | 0.83 ± 0.041
25 | E7ETZ4 and related entries (UniProt Q9Y6E2) | 0.936 ± 0.0097 | 0.9341 ± 0.0059 | 0.8943 ± 0.0045 | 0.923 ± 0.028 | 0.905 ± 0.034 | 0.879 ± 0.022
26 | F5H5U2 and related entries (UniProt Q8NHQ9) | 1.05 ± 0.048 | 1.05 ± 0.024 | 1.13 ± 0.088 | 1.18 ± 0.033 | 1.33 ± 0.13 | 1.54 ± 0.038
27 | E9PE19 and related entries (UniProt Q12830) | 1.02 ± 0.034 | 1.04 ± 0.039 | 1.06 ± 0.05 | 1.11 ± 0.12 | 1.07 ± 0.066 | 1.11 ± 0.055
28 | E2QRB3 and related entries (UniProt P32322) | 0.979 ± 0.011 | 0.985 ± 0.039 | 0.958 ± 0.018 | 0.975 ± 0.025 | 0.937 ± 0.014 | 0.96 ± 0.033
29 | E9PIV2 and related entries (UniProt P24001) | 0.966 ± 0.079 | 0.98 ± 0.12 | 0.922 ± 0.097 | 0.903 ± 0.022 | 0.813 ± 0.055 | 0.798 ± 0.18
30 | E7EVC7 and related entries (UniProt Q676U5) | 0.978 ± 0.019 | 0.986 ± 0.045 | 1.01 ± 0.031 | 1.02 ± 0.023 | 0.961 ± 0.049 | 0.965 ± 0.044

Record cards, as listed above.
E9PE19 and related entries (UniProt Q12830) is listed with NP40-soluble protein abundance (concentration: 1mM): 1.02 ± 0.034; NP40-soluble protein abundance (concentration: 2mM): 1.04 ± 0.039; NP40-soluble protein abundance (concentration: 4mM): 1.06 ± 0.05; NP40-soluble protein abundance (concentration: 6mM): 1.11 ± 0.12; NP40-soluble protein abundance (concentration: 8mM): 1.07 ± 0.066; NP40-soluble protein abundance (concentration: 10mM): 1.11 ± 0.055
E3W994 and related entries (UniProt O75122) is listed with NP40-soluble protein abundance (concentration: 1mM): 1.19 ± 0.087; NP40-soluble protein abundance (concentration: 2mM): 1.21 ± 0.084; NP40-soluble protein abundance (concentration: 4mM): 1.24 ± 0.087; NP40-soluble protein abundance (concentration: 6mM): 1.28 ± 0.093; NP40-soluble protein abundance (concentration: 8mM): 1.26 ± 0.086; NP40-soluble protein abundance (concentration: 10mM): 1.3 ± 0.086
